Source: US20170146538A1, “PRL-3 AS A BIOMARKER FOR THE PROGNOSIS OF CANCER AND A TARGET FOR THERAPY” (Agency for Science, Technology and Research, priority 2014, published 2017)
For at least one compound, name, drawing or mass did not settle the structure.

Tests used:
TF1-ITD cells = assay: Western blot analysis of TF1-ITD cells upon FLT3 or Src inhibition; format: cell-based, human; settings: various concentrations, 24 h, dose-dependent
Protocol: (§1) FIG. 2. […] Whole cell lysates were subjected to western blot analysis with indicated antibodies. GAPDH, loading control. A. (a-d) Western blot analysis of AML cells upon FLT3 inhibition. […] C. (a-b) Western blot analysis of AML cells upon Src inhibition.
(§2) Cells were lysed using modified RIPA buffer (50 mM Tris-HCl, 150 mM NaCl, 1% NP-40, pH 8.0, 1×protease inhibitor cocktail) and lysates were subjected to western blotting with indicated primary antibodies. Proteins recognized by the antibodies were detected using the Chemiluminescent Detection Kit (Pierce, Thermo Scientific, Rockford, Ill.).
(§3) Since STAT5 was known to be a critical downstream target of FLT3-ITD (Mizuki et al, 2000), we tested STAT5 expression level after treatment with FLT3-specific inhibitors; PKC412 or CEP-701 (Odgerel et al, 2007; Smith et al, 2004). […] We next examined whether FLT3-ITD-induced PRL-3 expression might be mediated by JAK or Src, two distinct upstream activators of STAT5 (Robinson et al, 2005; Spiekermann et al, 2003). […] To investigate the role of Src-mediated phosphorylation of STAT5 in FLT3-ITD positive AML cells. AML cells were treated with two distinct Src kinase inhibitors, SU6656 and PP2 (Blake et al, 2000; Nam et al, 2002).

MOLM-14 cells = assay: Western blot analysis of MOLM-14 cells upon FLT3 inhibition; format: cell-based, human; settings: various concentrations, 24 h, dose-dependent
Protocol: as §1, §2, §3

C[C@]12O[C@H](C[C@]1(O)CO)n1c3ccccc3c3c4c(c5c6ccccc6n2c5c31)CNC4=O [CEP-701, lestaurtinib]
inhibited: PRL-3 protein levels (TF1-ITD cells) | phosphorylation of FLT3 (TF1-ITD cells) | phosphorylation of STAT5 (TF1-ITD cells) | phosphorylation of Src (TF1-ITD cells) | PRL-3 protein levels (MOLM-14 cells) | phosphorylation of FLT3 (MOLM-14 cells) | phosphorylation of STAT5 (MOLM-14 cells) | phosphorylation of Src (MOLM-14 cells)
